From publication PMC10351895

By UniProt entry, the sequences of proteins in these tests, tags left out.
UniProt Q3U155: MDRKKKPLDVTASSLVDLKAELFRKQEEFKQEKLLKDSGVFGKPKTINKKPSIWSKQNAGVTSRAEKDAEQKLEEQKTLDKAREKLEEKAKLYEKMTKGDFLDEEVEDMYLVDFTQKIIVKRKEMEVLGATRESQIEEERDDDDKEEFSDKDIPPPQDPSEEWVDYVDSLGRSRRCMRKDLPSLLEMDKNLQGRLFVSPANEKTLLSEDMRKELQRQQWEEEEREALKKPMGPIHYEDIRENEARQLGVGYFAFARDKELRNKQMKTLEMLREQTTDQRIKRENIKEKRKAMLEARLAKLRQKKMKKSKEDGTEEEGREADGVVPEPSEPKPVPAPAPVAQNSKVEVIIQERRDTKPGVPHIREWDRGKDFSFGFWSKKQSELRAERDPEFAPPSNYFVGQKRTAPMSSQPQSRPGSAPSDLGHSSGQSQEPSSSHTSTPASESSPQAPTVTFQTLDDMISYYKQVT
UniProt O35286: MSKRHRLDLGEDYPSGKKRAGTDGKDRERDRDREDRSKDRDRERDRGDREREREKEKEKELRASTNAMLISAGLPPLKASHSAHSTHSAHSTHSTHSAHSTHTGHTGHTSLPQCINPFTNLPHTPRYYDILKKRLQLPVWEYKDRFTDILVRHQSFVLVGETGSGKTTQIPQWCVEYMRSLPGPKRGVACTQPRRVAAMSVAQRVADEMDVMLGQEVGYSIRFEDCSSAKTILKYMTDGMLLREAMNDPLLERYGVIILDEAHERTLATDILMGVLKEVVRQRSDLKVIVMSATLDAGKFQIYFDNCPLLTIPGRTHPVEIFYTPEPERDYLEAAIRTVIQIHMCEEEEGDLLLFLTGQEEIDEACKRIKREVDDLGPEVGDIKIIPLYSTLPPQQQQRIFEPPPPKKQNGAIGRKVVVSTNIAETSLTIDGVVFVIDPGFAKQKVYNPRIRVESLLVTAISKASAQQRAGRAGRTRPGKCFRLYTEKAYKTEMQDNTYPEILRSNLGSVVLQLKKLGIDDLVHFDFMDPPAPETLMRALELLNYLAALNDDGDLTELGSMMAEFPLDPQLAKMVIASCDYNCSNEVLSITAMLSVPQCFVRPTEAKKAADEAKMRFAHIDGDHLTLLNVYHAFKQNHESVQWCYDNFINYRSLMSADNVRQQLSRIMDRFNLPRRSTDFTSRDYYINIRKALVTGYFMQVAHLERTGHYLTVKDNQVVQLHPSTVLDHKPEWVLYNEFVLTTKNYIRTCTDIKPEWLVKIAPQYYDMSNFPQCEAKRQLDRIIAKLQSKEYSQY
UniProt Q8BTI8: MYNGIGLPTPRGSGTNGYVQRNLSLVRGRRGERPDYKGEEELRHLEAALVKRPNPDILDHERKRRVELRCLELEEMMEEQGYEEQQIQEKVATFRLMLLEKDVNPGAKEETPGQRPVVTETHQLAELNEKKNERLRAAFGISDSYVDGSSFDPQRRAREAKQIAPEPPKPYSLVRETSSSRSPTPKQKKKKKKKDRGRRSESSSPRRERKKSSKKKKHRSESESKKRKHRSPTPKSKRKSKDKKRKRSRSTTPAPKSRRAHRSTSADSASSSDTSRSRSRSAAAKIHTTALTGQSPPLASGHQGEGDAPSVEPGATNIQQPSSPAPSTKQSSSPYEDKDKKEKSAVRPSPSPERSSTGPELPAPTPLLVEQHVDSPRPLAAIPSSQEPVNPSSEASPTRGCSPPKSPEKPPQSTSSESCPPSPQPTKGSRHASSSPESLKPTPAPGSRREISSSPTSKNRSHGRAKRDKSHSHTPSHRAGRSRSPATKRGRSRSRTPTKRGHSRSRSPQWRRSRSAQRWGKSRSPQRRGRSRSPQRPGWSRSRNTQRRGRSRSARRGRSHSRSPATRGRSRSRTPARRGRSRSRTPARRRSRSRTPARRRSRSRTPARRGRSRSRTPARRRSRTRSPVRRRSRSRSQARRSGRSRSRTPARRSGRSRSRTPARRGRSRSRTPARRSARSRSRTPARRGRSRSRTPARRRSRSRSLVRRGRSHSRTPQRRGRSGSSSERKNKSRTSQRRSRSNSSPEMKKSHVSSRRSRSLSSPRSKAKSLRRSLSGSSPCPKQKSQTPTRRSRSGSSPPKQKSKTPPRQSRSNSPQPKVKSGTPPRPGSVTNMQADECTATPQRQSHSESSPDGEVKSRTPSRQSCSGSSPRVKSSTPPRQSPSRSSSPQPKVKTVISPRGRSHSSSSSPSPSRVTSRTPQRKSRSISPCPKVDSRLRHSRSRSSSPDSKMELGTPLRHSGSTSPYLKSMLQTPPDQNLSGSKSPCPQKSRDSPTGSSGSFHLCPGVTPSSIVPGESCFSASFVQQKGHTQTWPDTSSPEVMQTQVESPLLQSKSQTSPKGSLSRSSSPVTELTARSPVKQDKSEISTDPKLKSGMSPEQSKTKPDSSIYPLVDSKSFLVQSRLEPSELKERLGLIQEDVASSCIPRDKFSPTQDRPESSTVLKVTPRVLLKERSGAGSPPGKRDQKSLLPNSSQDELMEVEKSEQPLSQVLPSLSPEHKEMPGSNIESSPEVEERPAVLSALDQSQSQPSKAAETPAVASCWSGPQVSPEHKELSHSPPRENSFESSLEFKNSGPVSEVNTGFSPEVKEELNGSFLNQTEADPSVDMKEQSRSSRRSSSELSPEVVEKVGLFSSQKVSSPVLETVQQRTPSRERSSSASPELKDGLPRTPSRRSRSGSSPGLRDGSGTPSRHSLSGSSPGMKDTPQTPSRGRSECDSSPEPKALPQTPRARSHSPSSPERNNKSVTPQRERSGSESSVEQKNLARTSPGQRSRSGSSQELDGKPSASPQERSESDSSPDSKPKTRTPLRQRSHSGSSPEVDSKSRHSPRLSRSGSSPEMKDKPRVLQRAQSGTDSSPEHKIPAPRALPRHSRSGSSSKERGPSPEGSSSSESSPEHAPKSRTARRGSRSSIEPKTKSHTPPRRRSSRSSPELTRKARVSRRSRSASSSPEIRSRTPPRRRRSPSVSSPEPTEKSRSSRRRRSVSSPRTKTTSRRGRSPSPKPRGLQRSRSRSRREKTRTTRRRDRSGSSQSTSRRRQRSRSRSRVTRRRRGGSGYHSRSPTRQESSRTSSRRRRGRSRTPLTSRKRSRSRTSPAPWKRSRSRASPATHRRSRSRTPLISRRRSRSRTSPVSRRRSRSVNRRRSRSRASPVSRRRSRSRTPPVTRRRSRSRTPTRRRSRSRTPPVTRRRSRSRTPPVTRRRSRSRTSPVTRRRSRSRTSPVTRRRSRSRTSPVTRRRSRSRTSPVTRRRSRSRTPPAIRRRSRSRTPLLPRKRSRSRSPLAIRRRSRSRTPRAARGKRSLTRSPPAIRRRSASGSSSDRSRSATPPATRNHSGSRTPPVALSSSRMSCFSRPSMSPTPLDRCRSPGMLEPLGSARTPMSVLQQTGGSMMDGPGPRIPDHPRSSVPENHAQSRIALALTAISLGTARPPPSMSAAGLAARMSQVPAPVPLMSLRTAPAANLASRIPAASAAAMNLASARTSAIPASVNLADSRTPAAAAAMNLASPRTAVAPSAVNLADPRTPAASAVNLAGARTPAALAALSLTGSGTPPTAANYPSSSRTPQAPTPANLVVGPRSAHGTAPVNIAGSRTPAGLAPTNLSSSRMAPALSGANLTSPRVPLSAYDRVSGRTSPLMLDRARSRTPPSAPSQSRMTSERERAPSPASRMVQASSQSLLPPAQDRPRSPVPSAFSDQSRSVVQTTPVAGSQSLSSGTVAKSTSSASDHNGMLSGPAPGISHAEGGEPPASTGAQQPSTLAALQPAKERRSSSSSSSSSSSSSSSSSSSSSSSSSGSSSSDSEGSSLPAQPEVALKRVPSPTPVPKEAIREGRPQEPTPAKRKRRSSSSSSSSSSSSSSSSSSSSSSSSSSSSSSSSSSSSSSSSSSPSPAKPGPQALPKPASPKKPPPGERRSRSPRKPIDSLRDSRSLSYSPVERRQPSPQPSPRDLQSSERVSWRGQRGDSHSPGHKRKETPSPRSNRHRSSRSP

Key:
[1] = target: 3A-CCDC174 (endogenous gene tagged) (mouse (endogenous in mESCs)) (UniProt Q3U155); test: cross-linking + affinity purification with mass spectrometry; xTAP-MS: cells fixed 10 min with 0.1% formaldehyde (final), lysis in 1% SDS with Benzonase, tandem anti-FLAG then streptavidin purification of the endogenous 3A-tagged bait with stringent washes (0.5 M NaCl, 1% Triton X-100, 0.1% SDS); compared with untagged control, three replicates
[2] = target: T1, 3A-NRDE2 (nuclear RNAi-defective 2 with a composite 3xFLAG-AviTag, endogenous gene tagged) (mouse (endogenous in mESCs)) (UniProt Q80XC6); test: as above
T1 sequence (chain, biotin on the AviTag (cells express bacterial BirA ligase)): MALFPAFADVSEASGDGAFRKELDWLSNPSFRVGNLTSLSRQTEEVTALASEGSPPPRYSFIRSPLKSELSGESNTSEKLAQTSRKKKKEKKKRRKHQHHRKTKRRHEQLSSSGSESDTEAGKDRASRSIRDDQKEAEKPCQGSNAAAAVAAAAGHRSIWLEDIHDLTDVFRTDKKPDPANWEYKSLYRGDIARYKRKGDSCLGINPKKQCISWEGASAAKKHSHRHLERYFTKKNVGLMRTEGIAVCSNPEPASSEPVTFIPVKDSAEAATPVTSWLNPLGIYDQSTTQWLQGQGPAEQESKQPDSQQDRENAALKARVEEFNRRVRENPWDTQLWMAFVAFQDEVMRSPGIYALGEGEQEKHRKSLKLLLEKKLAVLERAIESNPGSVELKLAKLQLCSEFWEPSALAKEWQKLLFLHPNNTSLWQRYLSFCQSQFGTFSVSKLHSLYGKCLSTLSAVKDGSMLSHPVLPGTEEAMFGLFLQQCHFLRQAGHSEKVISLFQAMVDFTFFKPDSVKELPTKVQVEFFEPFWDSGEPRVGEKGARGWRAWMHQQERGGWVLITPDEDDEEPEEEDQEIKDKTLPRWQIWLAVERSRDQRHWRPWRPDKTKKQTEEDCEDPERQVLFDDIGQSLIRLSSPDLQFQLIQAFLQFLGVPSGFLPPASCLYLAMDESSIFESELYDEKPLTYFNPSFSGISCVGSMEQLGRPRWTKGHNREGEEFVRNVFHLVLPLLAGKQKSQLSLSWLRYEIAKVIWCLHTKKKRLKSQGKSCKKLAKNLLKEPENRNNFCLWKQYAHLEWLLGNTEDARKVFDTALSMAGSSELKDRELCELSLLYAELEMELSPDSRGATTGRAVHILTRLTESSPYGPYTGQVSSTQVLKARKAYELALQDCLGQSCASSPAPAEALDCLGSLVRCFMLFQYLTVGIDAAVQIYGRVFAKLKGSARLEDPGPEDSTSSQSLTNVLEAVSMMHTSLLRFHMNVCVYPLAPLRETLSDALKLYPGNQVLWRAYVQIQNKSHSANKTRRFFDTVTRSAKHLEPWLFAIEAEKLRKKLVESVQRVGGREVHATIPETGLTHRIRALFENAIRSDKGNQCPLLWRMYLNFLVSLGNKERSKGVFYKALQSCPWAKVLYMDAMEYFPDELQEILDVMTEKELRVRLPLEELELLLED

[3] = target: T1, 3A-NRDE2 (nuclear RNAi-defective 2 with a composite 3xFLAG-AviTag, endogenous gene tagged) (mouse (endogenous in mESCs)); test: affinity purification with mass spectrometry; nTAP-MS: tandem anti-FLAG then streptavidin purification of the endogenous 3A-tagged bait from mESC lysate under mild native low-salt conditions (B100: 10 mM Tris-HCl pH 7.5, 2 mM MgCl2, 100 mM NaCl, 0.5% Triton X-100, Benzonase); compared with untagged control, three replicates

With DHX15 (from UniProt O35286 1-795) the binding [1] was “binds” and the binding [2] was “binds”.

SRRM2 (from UniProt Q8BTI8 1-2703) was tested, and the binding [2] was “binds”.

B1: MTREX, nuclear exosome-associated RNA helicase (protein, UniProt Q9CZU3 1-1040)
chain: MADAFGDELFSVFEDDSTSAAGAKKDKEKEKWKGPPGSADKAGKRLDTKLQSESASGGKNKRDLDVEGTDEPIFGKKPRIEDSINEDLSLADLMPRVKVQSVETVEGCTHEVALPADEDYIPLKPRVGKAAKEYPFILDAFQREAIQCVDNNQSVLVSAHTSAGKTVCAEYAIALALREKQRVIFTSPIKALSNQKYREMYEEFQDVGLMTGDVTINPTASCLVMTTEILRSMLYRGSEVMREVAWVIFDEIHYMRDSERGVVWEETIILLPDNVHYVFLSATIPNARQFAEWICHLHKQPCHVIYTDYRPTPLQHYIFPAGGDGLHLVVDENGDFREDNFNTAMQVLRDAGDLAKGDQKGRKGGTKGPSNVFKIVKMIMERNFQPVIIFSFSKKDCEAYALQMTKLDFNTDEEKKMVEEVFNNAIDCLSDEDKKLPQVEHVLPLLKRGIGIHHGGLLPILKETIEILFSEGLIKALFATETFAMGINMPARTVLFTNARKYDGKDFRWISSGEYIQMSGRAGRRGMDDRGIVILMVDEKMSPTIGKQLLKGSADPLNSAFHLTYNMVLNLLRVEEINPEYMLEKSFYQFQHYRAIPGVVEKVKNSEEQYNKIVIPNEENVVIYYKIRQQLAKLGKEIEEYIHKPKYCLPFLQPGRLVKVKNEGDDFGWGVVVNFSKKSNVKPNSGELDPLYVVEVLLRCSKESLKNSATEAAKPAKPDEKGEMQVVPVLVHLLSAISTVRLYIPKDLRPVDNRQSVLKSIQEVQRRFPDGVPLLDPIDDMGIQDQGLKKVIQKVEAFEHRMYSHPLHNDPNLETVYTLCERKAQIALDIKSAKRELKKARTVLQMDELKCRKRVLRRLGFATSSDVIEMKGRVACEISSADELLLTEMMFNGLFNDLSSEQATALLSCFVFQENSSEMPKLTEQLAGPLRQMQECAKRIAKVSAEAKLEIDEETYLSSFKPHLMDVVYTWATGATFAHICKMTDVFEGSIIRCMRRLEELLRQMCQAAKAIGNTELENKFAEGITKIKRDIVFAASLYL
With B1 the binding [3] was “binds” and the binding [2] was “binds”.

B2: U2AF1 (protein, UniProt Q9D883 1-239)
chain: MAEYLASIFGTEKDKVNCSFYFKIGACRHGDRCSRLHNKPTFSQTIALLNIYRNPQNSSQSADGLRCAVSDVEMQEHYDEFFEEVFTEMEEKYGEVEEMNVCDNLGDHLVGNVYVKFRREEDAEKAVIDLNNRWFNGQPIHAELSPVTDFREACCRQYEMGECTRGGFCNFMHLKPISRELRRELYGRRRKKHRSRSRSRERRSRSRDRGRGGGGGGGGGGGRERDRRRSRDRERSGRF
For B2, the binding [2] was “binds”.

B3: CWC22 (protein, UniProt Q8C5N3 1-908)
chain: MKSSVAHMKSSGHNRRETHSSYRRSSSPEDRYTEQERSPRDRGYSDYSRSDYERSRRGYSYDDSMESRSRDREKRRERERDADHRKRSRKSPSPDRSPARGGGQSSPQEEPTWKKKKDELDPLLTRTGGAYIPPAKLRMMQEQITDKSSLAYQRMSWEALKKSINGLINKVNISNISIIIQELLQENIVRGRGLLSRSVLQAQSASPIFTHVYAALVAIINSKFPQIGELILKRLILNFRKGYRRNDKQLCLTASKFVAHLINQNVAHEVLCLEMLTLLLERPTDDSVEVAIGFLKECGLKLTQVSPRGINAIFERLRNILHESEIDKRVQYMIEVMFAVRKDGFKDHPVILEGLDLVEEDDQFTHMLPLEDDYNPEDVLNVFKMDPNFMENEEKYKAIKKEILDEGDSDSNTDQGAGSSEDEEEEDEEEEGEDEEGGQKVTIHDKTEINLVSFRRTIYLAIQSSLDFEECAHKLLKMEFAESQTKELCNMILDCCAQQRTYEKFFGLLAGRFCMLKKEYMESFESIFKEQYDTIHRLETNKLRNVAKMFAHLLYTDSLPWSVLECIKLSEETTTSSSRIFVKIFFQELCEYMGLPKLNARLKDETLQPFFEGLLPRDNPRNTRFAINFFTSIGLGGLTDELREHLKNTPKVIVAQKPEAEQKKPALTSSSSESSSASDSSDSESDSSESSSESSSDASDSSSSSSTQSSTSGITAHSAKGTRKKRQGKARGEEVDKLARGHQALERRREGGREDQRHQEGRTERARSERRRAQNSRDADWRDPLAKHIDDRSHENSHSRVGNGREQGSHREPEDRHGEPKKRRERRDSFSENEKQRSRNQDSDNVRRKDRSKSRERSRRHSGHKGDDARCQNSAERRWEKPGRRPEQSRESKRSQDRRREKSPTTQK
With B3 the binding [2] was “binds”.

B4: TFIP11 (protein, UniProt Q9ERA6 1-838)
chain: MSLSHLYRDGEGHLDDDDDDERENFEITDWDLQNEFNPNRQRHWQTKEEATYGVWAERDSDEERPSFGGKRARDYSAPVNFISAGLKKGAAEEADSEDSDAEEKPVKQEDFPKDLGPKKLKTGGNFKPSQKGFSGGTKSFMDFGSWERHTKGIGQKLLQKMGYVPGRGLGKNAQGIINPIEAKQRKGKGAVGAYGSERTTQSLQDFPVADSEEEAEEEFQKELSQWRKDPSGSKKKPKYSYKTVEELKAKGRVSKKLTAPQKELSQVKVIDMTGREQKVYYSYSQISHKHSVPDEGVPLLAQLPPTAGKEARMPGFALPELEHNLQLLIERTEQEIIQSDRQLQYERDMVVSLSHELEKTAEVLAHEERVISNLSKVLALVEECERRMQPHGADPLTLDECARIFETLQDKYYEEYRLADRADLAVAIVYPLVKDYFKDWHPLEDGSYGTQIISKWKSLLENDQLLSHSSQDLSSDAFHRLMWEVWMPFVRNVVAQWQPRNCEPMVDFLDSWAHIIPVWILDNILDQLIFPKLQKEVDNWNPLTDTVPIHSWIHPWLPLMQARLEPLYSPVRSKLSSALQKWHPSDASAKLILQPWKEVLTPGSWEAFMLRNIVPKLGMCLGELVINPHQQHMDAFYWVMDWEGMISVSSLVGLLEKHFFPKWLQVLCSWLSNSPNYEEITKWYLGWKSMFSDQVLAHPSVKDKFNEALDIMNRAVSSNVGAYMQPGARENIAYLTHTERRKDFQYEAMQERREAENMAQRGIGVAASSVPMNFKDLIETKAEEHNIVFMPVIGKRHEGKQLYTFGRIVIYIDRGVVFVQGEKTWVPTSLQSLIDMAK
In the case of B4, the binding [1] is reported as “binds” and the binding [2] is reported as “binds”.

Results are given in words; binding and its absence hold for the method and conditions named. In cells and extracts the contact can be indirect. These calls come from enrichment with a bait or labelling near it, and not all partners need be listed. For part of these data: Sequences can lack the tags named with a protein.
